Test results taken from patent publication WO2012175740A1.
Numbering of substitutions follows the chain as printed. These are yes or no findings as the source states them, for the method shown. Some results given as binding are weak or reduced against the parent protein; the word gives no strength.

B1: Nanobody 39D8 (VHH, not shown: small tags and cut ends)
VHH: EVQLVESGGGLVQPGGSLRLSCAASGFTFGSYDMSWVRQAPGKGPEWVSSIDTGGDITHYADSVKGRFTISRDNANNMLYLQMNSLKPGDTAVYWCATDEDYALGPNEYDYYGQGTQVTVSS
B2: Nanobody 42D7 (VHH, not shown: small tags and cut ends)
VHH: B1 VHH with S17P, G89E
B3: Nanobody 42G5 (VHH, not shown: small tags and cut ends)
VHH: B1 VHH with Q13R, S31N, S63P, N76A, M78T, G89E, W95Y
B4: Nanobody 36G5 (VHH, not shown: small tags and cut ends)
VHH: EVQLVESGGGLVQPGGSLRLSCVASGFTFGSYDMSWVRQAPGKRPEWVSAINSGGGSTYYADSVKGRFTISRDNAKNTLYLQMNSLKPEDTAVYYCATDEDYALGPNEYDYYGQGTQVTVSS

Biological target: cyno IgE c(epsilon)2-c(epsilon)3-c(epsilon)4 Fc fragment with C-terminal (His)10 tag (cynomolgus monkey)
Assay: Alphascreen screening of periplasmic extracts, block of cyno IgE Fc / HuFc(epsilon)RI(alpha)Fc

Row | binding | Binder
1 | binds | B1
2 | binds | B2
3 | binds | B3
4 | binds | B4

Biological target: cyno IgE c(epsilon)2-c(epsilon)3-c(epsilon)4 Fc fragment with C-terminal (His)10 tag (cynomolgus monkey)
Assay: Alphascreen competition with HuFc(epsilon)RI(alpha)Fc for cyno IgE Fc

Row | binding | Binder
5 | binds | B1
6 | binds | B2
7 | binds | B3
8 | binds | B4
